Some of the results follow.

The experiment has as its target T1, OsSMF1 (Oryza sativa, UniProt Q6ZLB0 1-436).
T1 sequence: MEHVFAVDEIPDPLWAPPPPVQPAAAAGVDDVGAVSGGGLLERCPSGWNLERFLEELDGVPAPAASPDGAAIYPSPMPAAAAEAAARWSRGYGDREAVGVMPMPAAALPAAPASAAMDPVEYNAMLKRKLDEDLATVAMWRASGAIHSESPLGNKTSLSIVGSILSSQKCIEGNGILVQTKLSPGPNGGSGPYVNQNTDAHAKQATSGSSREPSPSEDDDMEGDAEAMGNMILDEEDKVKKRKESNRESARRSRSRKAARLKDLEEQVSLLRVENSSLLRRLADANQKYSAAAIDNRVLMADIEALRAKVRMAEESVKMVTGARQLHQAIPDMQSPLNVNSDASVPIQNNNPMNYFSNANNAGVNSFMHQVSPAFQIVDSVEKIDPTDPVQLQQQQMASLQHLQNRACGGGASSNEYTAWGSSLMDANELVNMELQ
The experiment in a line: protein-binding microarray (RPBM); PBS, 2% BSA, 51.3 ng/ul salmon testes DNA, 50 uM zinc acetate, 200 nM TF, 25 C, 1 h; high values mean tight binding. Particulars: protein: recombinant; tags: N-terminal polyhistidine and DsRed monomer fusion (pET32a); chain copies: 2; label: CyDye5-dUTP incorporated in the synthesized complementary strand; 3' TTTTT single-stranded linker to array surface; dsDNA, one strand shown. An outline of the steps:
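For the binding signal, per-feature fluorescence intensity was read in arbitrary units on an Axon 4000B scanner. Before scanning, a 2% BSA-blocked custom Agilent array made double-stranded with Cy5-dUTP was washed after 1 h at 25 °C with 200 nM protein and 50 µM zinc acetate. The proteins were Ni–NTA-purified transcription factors with N-terminal polyhistidine and DsRed fusions, expressed in E. coli BL21-CodonPlus.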
For the sequence “ATAAGATTTGACACCTGATACTGATACTGTCCAGTTTATGCGGAGTCACCTAGTGCAG”, the binding signal is 3330 fluorescence intensity (a.u.).
On to “CGCCTTCGCCACCACCGCACATCATCGCTCGCTTCCCGGCCGGAGTCACCTAGTGCAG”, for which the binding signal is 3160 fluorescence intensity (a.u.).
The result for “CTTTGTCTCGGCCCATAATGGCCAGCGTTTATGGCTCACTCGGAGTCACCTAGTGCAG” reads 10600 fluorescence intensity (a.u.).
Next, “CCATGGATCCACCTGTCCACGCAGCTGAGCTTAACCACCGCGGAGTCACCTAGTGCAG”: 3490 fluorescence intensity (a.u.); “AATAACTTTTGTTCTGCATTCCCTCCTAGAGCATGTTCACCGGAGTCACCTAGTGCAG”: 3510 fluorescence intensity (a.u.); “TCCACTCTCCACCAGTCAGCAGTGACGACAAGCAACTTGCCGGAGTCACCTAGTGCAG”: 5280 fluorescence intensity (a.u.).
In the case of “ACATACTTTCGTCTTCCTCCAGCTAACGGCCTCGCATTCTCGGAGTCACCTAGTGCAG”, the binding signal is 3900 fluorescence intensity (a.u.).
As for “ACAGTGCCACCAGAAAACGAGCAACTCATTGCCAATGGATCGGAGTCACCTAGTGCAG”, the binding signal was 3190 fluorescence intensity (a.u.).
On to “GGTCCACGTAAACAGAATGACCAGACTTATTTGATTCTCTCGGAGTCACCTAGTGCAG”, for which the binding signal was 4640 fluorescence intensity (a.u.).
As for “TGACAGACATCACACGCGGACGTTCAATTTATCCCAGCATCGGAGTCACCTAGTGCAG”, the binding signal was 3310 fluorescence intensity (a.u.).
Turning to “CCGCGCGCGCCACGCGGCAGCGGAGCAGGTGTAGTTCTTGCGGAGTCACCTAGTGCAG”, the binding signal was 5890 fluorescence intensity (a.u.).
Regarding “GGAAGGTGAGGGGTGATGGTAGCACGTGCAAGACGGTAGTCGGAGTCACCTAGTGCAG”, the binding signal was 3720 fluorescence intensity (a.u.).
For the sequence “TTCTGCCGTCGCGCGGATGGCGTCACGTCGGCGGCGAAGACGGAGTCACCTAGTGCAG”, the binding signal is 3670 fluorescence intensity (a.u.).
Consider “ACCCCTTGATGGCCCATAAAATATGGGCTCCACGTTGCATCGGAGTCACCTAGTGCAG”, for which the binding signal was 7420 fluorescence intensity (a.u.).
On to “GCACTAGCAACCAAATTGGATGCCGCATGGCGCCACGTTACGGAGTCACCTAGTGCAG”, for which the binding signal is 4880 fluorescence intensity (a.u.).
Regarding “GTCACTGTGGCATTGCCACGTCAGCGAATCGAGTGGGTTACGGAGTCACCTAGTGCAG”, the binding signal is 15300 fluorescence intensity (a.u.).
On to “TACGTGAAACTGACGTAATATTGAGCTGGCAGAAGTAGCACGGAGTCACCTAGTGCAG”, for which the binding signal is 6360 fluorescence intensity (a.u.).
For “TTACCTAAATAGCCATATTTGCAATGTCACCAATTCACCCCGGAGTCACCTAGTGCAG”, the binding signal was 4840 fluorescence intensity (a.u.).
“TCGTCGCGTTGGATTTGACGAGCTCGTCACCACCGGCTGCCGGAGTCACCTAGTGCAG”: the binding signal is 3270 fluorescence intensity (a.u.).
Next, “ATATCAACCATGTCGTTCGTCCATCTTGTTCTGACCTGTGCGGAGTCACCTAGTGCAG”: 3780 fluorescence intensity (a.u.); “ACCACCACCTCGGCATCTCCTCGTCCTCGAGCCCAATACTCGGAGTCACCTAGTGCAG”: 3660 fluorescence intensity (a.u.); “ATTATATCATGCCATTTTAGAAGAATCCTCCGGTCCACGTCGGAGTCACCTAGTGCAG”: 5570 fluorescence intensity (a.u.).
The result for “GGTCGGTCATGCTTAGCGGCGGCCGATCTGGTGCTAGTCTCGGAGTCACCTAGTGCAG” reads 3410 fluorescence intensity (a.u.).
Turning to “AAAATGACAGCTGTACCGTGGGTGGTGTCACACCTTTTGCCGGAGTCACCTAGTGCAG”, the binding signal was 5750 fluorescence intensity (a.u.).
“TTCCTGTGCTTTTATATAGTCGGCCACGCGTCCCTTGAGCCGGAGTCACCTAGTGCAG”: the binding signal is 3860 fluorescence intensity (a.u.).
As to “TGGTTGTGTCCTGGTTTACCTAATTGAGTCAATCAATATGCGGAGTCACCTAGTGCAG”, the binding signal is 3340 fluorescence intensity (a.u.).
“GAGATTCGGCCCATGACGTCGTGGTCTGGAGCGACACGTACGGAGTCACCTAGTGCAG”: the binding signal is 3200 fluorescence intensity (a.u.).
In the case of “TTTTCTGCACATTTCCACCACGTCACAAAGAGCTAAGAGTCGGAGTCACCTAGTGCAG”, the binding signal was 7550 fluorescence intensity (a.u.).
With “GCTCACGCTTCGCCGTCCGCGTCGCGTCGCGTTGCGTCGGCGGAGTCACCTAGTGCAG”, the binding signal is 3420 fluorescence intensity (a.u.).
With “GAATTGAGCATGTCGGGAGAATCTGAACAATGGTGGTTGTCGGAGTCACCTAGTGCAG”, the binding signal is 3870 fluorescence intensity (a.u.).
Consider “TAGTCAAAGGAGCCACGTAGATGTCACATTAGCTAAAACTCGGAGTCACCTAGTGCAG”, for which the binding signal was 5400 fluorescence intensity (a.u.).
In the case of “GGTTTTGGAGAGCGGTTTCACTGACGTGGCAGTGTTGACCCGGAGTCACCTAGTGCAG”, the binding signal is 22900 fluorescence intensity (a.u.).
In the case of “CGCCTCGTCCTCTCCTTATCTCCTGTCTTTCGTGGCATCTCGGAGTCACCTAGTGCAG”, the binding signal is 4620 fluorescence intensity (a.u.).
Regarding “CGGATGCCGTCCCTGCCGCCGGCCCACGTCGAGCTCATCCCGGAGTCACCTAGTGCAG”, the binding signal was 3800 fluorescence intensity (a.u.).
As to “CCGCCGCCACGCCGCTCCATGTCACTCCTACTCCCGCCACCGGAGTCACCTAGTGCAG”, the binding signal is 7630 fluorescence intensity (a.u.).
For “GCCGACGCGCGCCGAGCTCATGGCTGCTACGTCCCCGCACCGGAGTCACCTAGTGCAG”, the binding signal was 3610 fluorescence intensity (a.u.).
Turning to “TAGGATTTACAGATGCATGACACGCTCCACCATGGACAAACGGAGTCACCTAGTGCAG”, the binding signal is 3430 fluorescence intensity (a.u.).
Take “CACCCTTGACCATTAGTGATGACGATGGCTCCTGGCGGCCCGGAGTCACCTAGTGCAG”: the binding signal was 6210 fluorescence intensity (a.u.).
Turning to “TATTTTCTGGATTCAATTGCCACGTAAGCGCCACATCATTCGGAGTCACCTAGTGCAG”, the binding signal is 16000 fluorescence intensity (a.u.).
Regarding “TGGGCAACGAATGCGAACCTACTTCTCCTAGTATACTGCTCGGAGTCACCTAGTGCAG”, the binding signal is 3720 fluorescence intensity (a.u.).
For “ACTTTGTCAAGTTCAATAATATACCATCGTGTTTTCTTTACGGAGTCACCTAGTGCAG”, the binding signal was 3260 fluorescence intensity (a.u.).
The result for “ATAAAGCACGAGGTGTACTTCTCGGCCAAATTATGGATCACGGAGTCACCTAGTGCAG” reads 3140 fluorescence intensity (a.u.).

The record behind these values is publication PMC7819943, “Rice protein-binding microarrays: a tool to detect cis-acting elements near promoter regions in rice”.
